Data as given in PubChem BioAssay AID1159578 (Peter MacCallum Cancer Centre, 2015)
The deposit covers about 18,000 reagents; shown is a random part of them. About 1,030 of all reagents (5.7%) count as active. 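Inactive calls also include pools with fewer than 3300 nuclei, whose migration was not assessed.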 The raw values are shown without normalisation. A number with no mark means an inactive call. Further read-outs or replicates are left out here.

Test: 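Knock-downs that alter how fast lymphatic endothelial cells migrate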 (primary screen)
Cell system: human lymphatic endothelial cells
Reagent: siRNA pool against human genes, 40 nM
Timing: 48 h after transfection
Read-out: 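High-content imaging of dye-stained cells in a scratch assay measures filled wound area and nuclei per well; duplicate means given as ratio to mock and robust z-score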
Scale: migration robust z-score: higher = faster migration into the scratch; nuclei per well: higher = more cells in the well
Hit rule: 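Migration changed when robust z exceeds 2 or falls below -2 and mean nuclei number is at least 3300; otherwise not called changed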
Meaning of the calls: active = migration changed; inactive = no migration change, or too few cells

With knock-down of MICU2 (mitochondrial calcium uptake 2), the record shows migration robust z-score -1.25; nuclei per well, duplicate mean 5967.
For HAP1 (huntingtin associated protein 1), the values are migration robust z-score 0.95; nuclei per well, duplicate mean 5799.
With knock-down of TSFM (Ts translation elongation factor, mitochondrial), the record shows migration robust z-score 0.18; nuclei per well, duplicate mean 7216.
Silencing of BMP3 (bone morphogenetic protein 3) resulted in: migration robust z-score -0.36; nuclei per well, duplicate mean 6116.
Silencing of CRTAM (cytotoxic and regulatory T cell molecule) came out at: migration robust z-score 0.86; nuclei per well, duplicate mean 5857.
Depletion of DDX24 (DEAD-box helicase 24) came out at: migration robust z-score -0.52; nuclei per well, duplicate mean 5239.
SH3GL1 (SH3 domain containing GRB2 like 1, endophilin A2) gave migration robust z-score 2.62 (active); nuclei per well, duplicate mean 5830.
RNF20 (ring finger protein 20) showed migration robust z-score -0.42; nuclei per well, duplicate mean 5449.
Knock-down of DPY19L2 (dpy-19 like 2) gave: migration robust z-score 1.34; nuclei per well, duplicate mean 5666.
Depletion of TTC38 (tetratricopeptide repeat domain 38) gave: migration robust z-score 0.19; nuclei per well, duplicate mean 5932.

An excerpt from above, reduced to “nuclei per well, duplicate mean”:
BMP3 (bone morphogenetic protein 3): 6116
CRTAM (cytotoxic and regulatory T cell molecule): 5857
DDX24 (DEAD-box helicase 24): 5239

The listing continues:
Against C1orf226 (chromosome 1 open reading frame 226), the entry reads migration robust z-score -0.52; nuclei per well, duplicate mean 5658.
For TREML1 (triggering receptor expressed on myeloid cells like 1), the entry reads migration robust z-score -0.49; nuclei per well, duplicate mean 4087.
After knock-down of KIFC3 (kinesin family member C3), the record shows migration robust z-score -1.72; nuclei per well, duplicate mean 5870.
Depletion of EBP (EBP cholestenol delta-isomerase) resulted in: migration robust z-score 0.31; nuclei per well, duplicate mean 5905.
For LCN15 (lipocalin 15), the values are migration robust z-score 0.21; nuclei per well, duplicate mean 5580.
For CDRT15 (CMT1A duplicated region transcript 15), the values are migration robust z-score -0.23; nuclei per well, duplicate mean 5418.
Against DRD3 (dopamine receptor D3), the values are migration robust z-score 0.96; nuclei per well, duplicate mean 4420.
After knock-down of FERMT2 (FERM domain containing kindlin 2) the results were migration robust z-score -0.46; nuclei per well, duplicate mean 5358.
Silencing of CFAP20DC (CFAP20 domain containing) gave: migration robust z-score 0.64; nuclei per well, duplicate mean 6014.
PKP3 (plakophilin 3) scored migration robust z-score -1.1; nuclei per well, duplicate mean 4719.
Against ADAMTS15 (ADAM metallopeptidase with thrombospondin type 1 motif 15) the deposit lists migration robust z-score -1.35; nuclei per well, duplicate mean 5400.
